We go through one molecule from article PMC8376927.

Results are given in words; binding and its absence hold for the method and conditions named. Some binding calls cover weakened binding; strength is not graded here.

The target of the assay is T1, FAM-aidDAPK-pS318 peptide (FAM-RRRWKLpSFSIV) (human).
T1 sequence (peptide, FAM on the N-terminus; phosphoserine at 318): RRRWKLSFSIV
Put plainly: fluorescence polarisation; 14-3-3γ (160 µM and binary dilution series) incubated 1 h with 50 nM FAM-labelled peptide; 20 mM HEPES-NaOH pH 7.4, 150 mM NaCl, 0.1% Tween 20, 0.1% BSA; one-site-binding model; apparent KD; both purified. (In fluorescence polarisation assays a small probe gives low polarisation when free and higher when bound to something large.)

B1: Human 14-3-3γ WT (protein, UniProt P61981 1-247)
chain: MVDREQLVQKARLAEQAERYDDMAAAMKNVTELNEPLSNEERNLLSVAYKNVVGARRSSWRVISSIEQKTSADGNEKKIEMVRAYREKIEKELEAVCQDVLSLLDNYLIKNCSETQYESKVFYLKMKGDYYRYLAEVATGEKRATVVESSEKAYSEAHEISKEHMQPTHPIRLGLALNYSVFYYEIQNAPEQACHLAKTAFDDAIAELDTLNEDSYKDSTLIMQLLRDNLTLWTSDQQDDDGGEGNN
Turning to B1, the binding entry is “binds weakly”.
